The other results are listed elsewhere or left out. Most entries show no effect beyond the scatter of the controls.
Compound: CN[C@@H]1C[C@H]2O[C@@](C)([C@@H]1OC)n1c3ccccc3c3c4c(c5c6ccccc6n2c5c31)C(=O)NC4 [staurosporine]
Experiment: log2 fold change of tryptic peptide abundance, ligand vs vehicle (limited proteolysis) (log2 ratio); higher = more trypsin-susceptible (destabilized)
Settings: ligand concentration: 20 uM; sample: mouse liver crude lysate; replicate design: treated separately

Amino acid sequences for entries named in this document (tags omitted). A change or cut given only in a name is not applied to a line headed by its entry.
UniProt Q62036: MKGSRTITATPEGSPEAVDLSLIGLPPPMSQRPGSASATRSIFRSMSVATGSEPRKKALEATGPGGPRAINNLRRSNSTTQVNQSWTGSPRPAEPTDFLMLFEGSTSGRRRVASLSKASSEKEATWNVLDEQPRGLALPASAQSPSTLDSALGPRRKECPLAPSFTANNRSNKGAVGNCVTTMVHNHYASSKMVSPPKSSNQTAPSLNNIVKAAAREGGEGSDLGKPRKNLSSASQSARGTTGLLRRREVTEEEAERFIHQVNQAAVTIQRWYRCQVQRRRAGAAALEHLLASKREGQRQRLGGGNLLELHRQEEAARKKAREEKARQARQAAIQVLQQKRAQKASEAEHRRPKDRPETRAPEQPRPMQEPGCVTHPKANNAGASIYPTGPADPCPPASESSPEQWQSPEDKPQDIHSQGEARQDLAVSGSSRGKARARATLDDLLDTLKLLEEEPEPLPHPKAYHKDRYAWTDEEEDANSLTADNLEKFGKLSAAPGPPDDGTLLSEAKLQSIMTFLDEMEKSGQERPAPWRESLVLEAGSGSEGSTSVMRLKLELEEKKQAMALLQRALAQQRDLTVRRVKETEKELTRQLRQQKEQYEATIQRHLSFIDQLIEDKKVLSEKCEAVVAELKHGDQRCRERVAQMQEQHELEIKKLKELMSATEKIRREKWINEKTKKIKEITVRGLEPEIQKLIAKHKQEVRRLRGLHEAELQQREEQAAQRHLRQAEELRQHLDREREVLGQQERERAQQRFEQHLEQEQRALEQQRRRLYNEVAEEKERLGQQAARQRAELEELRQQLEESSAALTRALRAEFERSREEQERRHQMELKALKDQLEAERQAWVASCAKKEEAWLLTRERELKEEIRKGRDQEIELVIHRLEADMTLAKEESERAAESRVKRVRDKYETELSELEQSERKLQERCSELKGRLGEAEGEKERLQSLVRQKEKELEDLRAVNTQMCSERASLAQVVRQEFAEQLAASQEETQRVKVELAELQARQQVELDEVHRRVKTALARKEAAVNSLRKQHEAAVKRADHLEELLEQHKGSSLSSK
UniProt Q61458: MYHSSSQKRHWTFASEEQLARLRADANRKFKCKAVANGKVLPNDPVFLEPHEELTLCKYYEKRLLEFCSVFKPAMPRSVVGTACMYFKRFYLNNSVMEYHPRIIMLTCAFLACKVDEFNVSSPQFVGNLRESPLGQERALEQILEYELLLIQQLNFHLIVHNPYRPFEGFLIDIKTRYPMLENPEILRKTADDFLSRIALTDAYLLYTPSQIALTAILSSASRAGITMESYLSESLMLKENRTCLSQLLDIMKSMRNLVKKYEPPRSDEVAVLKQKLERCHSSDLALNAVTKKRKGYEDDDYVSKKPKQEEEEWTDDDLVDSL
UniProt Q61502: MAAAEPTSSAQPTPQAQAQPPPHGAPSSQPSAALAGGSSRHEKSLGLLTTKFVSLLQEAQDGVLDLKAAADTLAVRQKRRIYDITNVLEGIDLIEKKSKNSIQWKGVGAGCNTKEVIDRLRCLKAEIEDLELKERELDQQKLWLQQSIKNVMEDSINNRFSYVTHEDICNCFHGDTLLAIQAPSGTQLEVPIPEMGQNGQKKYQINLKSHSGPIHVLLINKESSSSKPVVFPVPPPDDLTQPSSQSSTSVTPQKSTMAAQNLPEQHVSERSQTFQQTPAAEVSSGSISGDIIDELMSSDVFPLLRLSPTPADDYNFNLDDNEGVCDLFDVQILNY
UniProt Q62432, whole entry: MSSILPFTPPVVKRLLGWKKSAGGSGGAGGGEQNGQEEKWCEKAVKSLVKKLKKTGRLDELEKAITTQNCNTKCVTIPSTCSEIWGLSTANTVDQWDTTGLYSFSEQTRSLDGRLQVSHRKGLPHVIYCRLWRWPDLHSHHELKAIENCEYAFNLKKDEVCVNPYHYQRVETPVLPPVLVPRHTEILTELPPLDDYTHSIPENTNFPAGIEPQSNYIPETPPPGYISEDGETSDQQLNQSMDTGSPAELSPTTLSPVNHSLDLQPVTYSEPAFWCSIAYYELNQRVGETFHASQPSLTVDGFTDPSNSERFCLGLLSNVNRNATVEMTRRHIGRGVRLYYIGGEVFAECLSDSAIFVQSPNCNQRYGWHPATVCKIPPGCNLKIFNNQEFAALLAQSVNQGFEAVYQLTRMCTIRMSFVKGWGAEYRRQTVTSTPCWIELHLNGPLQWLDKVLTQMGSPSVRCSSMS
UniProt Q62394: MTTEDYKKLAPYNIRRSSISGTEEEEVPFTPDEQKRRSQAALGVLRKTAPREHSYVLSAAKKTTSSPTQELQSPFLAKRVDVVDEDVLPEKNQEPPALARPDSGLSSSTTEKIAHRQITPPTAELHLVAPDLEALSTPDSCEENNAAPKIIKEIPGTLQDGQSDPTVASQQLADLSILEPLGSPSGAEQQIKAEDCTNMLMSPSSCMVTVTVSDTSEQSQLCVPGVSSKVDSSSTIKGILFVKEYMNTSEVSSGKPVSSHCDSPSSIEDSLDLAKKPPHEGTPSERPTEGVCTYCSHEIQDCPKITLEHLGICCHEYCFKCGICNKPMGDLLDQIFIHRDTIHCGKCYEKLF
UniProt Q62426: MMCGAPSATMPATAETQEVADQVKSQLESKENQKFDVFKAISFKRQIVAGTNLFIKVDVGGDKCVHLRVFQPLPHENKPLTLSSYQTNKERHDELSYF
UniProt Q69Z61: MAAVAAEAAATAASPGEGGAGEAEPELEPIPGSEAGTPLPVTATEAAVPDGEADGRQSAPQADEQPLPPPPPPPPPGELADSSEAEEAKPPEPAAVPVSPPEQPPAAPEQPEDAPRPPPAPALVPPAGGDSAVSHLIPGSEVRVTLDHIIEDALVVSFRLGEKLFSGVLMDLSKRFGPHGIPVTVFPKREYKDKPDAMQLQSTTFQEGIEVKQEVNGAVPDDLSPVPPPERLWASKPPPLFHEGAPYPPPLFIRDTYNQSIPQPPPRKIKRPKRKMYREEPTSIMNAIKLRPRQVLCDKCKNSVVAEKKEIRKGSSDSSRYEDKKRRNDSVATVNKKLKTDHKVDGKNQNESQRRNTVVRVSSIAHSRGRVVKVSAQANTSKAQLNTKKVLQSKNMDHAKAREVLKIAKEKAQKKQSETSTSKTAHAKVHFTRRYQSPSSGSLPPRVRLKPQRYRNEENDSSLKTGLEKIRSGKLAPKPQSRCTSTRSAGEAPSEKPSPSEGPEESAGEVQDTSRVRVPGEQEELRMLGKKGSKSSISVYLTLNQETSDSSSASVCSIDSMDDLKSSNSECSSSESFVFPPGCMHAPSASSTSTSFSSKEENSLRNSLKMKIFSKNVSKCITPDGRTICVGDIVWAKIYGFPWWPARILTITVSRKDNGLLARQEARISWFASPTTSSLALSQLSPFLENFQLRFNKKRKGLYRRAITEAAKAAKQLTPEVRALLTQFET
UniProt Q64726: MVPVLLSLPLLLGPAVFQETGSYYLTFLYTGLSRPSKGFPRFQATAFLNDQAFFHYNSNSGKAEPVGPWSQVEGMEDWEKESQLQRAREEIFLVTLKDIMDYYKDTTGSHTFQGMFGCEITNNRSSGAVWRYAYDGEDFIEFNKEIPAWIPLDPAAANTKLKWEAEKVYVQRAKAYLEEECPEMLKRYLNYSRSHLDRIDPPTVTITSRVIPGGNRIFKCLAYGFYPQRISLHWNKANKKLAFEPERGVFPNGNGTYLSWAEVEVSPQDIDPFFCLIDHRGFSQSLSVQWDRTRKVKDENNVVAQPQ
UniProt Q67FY2: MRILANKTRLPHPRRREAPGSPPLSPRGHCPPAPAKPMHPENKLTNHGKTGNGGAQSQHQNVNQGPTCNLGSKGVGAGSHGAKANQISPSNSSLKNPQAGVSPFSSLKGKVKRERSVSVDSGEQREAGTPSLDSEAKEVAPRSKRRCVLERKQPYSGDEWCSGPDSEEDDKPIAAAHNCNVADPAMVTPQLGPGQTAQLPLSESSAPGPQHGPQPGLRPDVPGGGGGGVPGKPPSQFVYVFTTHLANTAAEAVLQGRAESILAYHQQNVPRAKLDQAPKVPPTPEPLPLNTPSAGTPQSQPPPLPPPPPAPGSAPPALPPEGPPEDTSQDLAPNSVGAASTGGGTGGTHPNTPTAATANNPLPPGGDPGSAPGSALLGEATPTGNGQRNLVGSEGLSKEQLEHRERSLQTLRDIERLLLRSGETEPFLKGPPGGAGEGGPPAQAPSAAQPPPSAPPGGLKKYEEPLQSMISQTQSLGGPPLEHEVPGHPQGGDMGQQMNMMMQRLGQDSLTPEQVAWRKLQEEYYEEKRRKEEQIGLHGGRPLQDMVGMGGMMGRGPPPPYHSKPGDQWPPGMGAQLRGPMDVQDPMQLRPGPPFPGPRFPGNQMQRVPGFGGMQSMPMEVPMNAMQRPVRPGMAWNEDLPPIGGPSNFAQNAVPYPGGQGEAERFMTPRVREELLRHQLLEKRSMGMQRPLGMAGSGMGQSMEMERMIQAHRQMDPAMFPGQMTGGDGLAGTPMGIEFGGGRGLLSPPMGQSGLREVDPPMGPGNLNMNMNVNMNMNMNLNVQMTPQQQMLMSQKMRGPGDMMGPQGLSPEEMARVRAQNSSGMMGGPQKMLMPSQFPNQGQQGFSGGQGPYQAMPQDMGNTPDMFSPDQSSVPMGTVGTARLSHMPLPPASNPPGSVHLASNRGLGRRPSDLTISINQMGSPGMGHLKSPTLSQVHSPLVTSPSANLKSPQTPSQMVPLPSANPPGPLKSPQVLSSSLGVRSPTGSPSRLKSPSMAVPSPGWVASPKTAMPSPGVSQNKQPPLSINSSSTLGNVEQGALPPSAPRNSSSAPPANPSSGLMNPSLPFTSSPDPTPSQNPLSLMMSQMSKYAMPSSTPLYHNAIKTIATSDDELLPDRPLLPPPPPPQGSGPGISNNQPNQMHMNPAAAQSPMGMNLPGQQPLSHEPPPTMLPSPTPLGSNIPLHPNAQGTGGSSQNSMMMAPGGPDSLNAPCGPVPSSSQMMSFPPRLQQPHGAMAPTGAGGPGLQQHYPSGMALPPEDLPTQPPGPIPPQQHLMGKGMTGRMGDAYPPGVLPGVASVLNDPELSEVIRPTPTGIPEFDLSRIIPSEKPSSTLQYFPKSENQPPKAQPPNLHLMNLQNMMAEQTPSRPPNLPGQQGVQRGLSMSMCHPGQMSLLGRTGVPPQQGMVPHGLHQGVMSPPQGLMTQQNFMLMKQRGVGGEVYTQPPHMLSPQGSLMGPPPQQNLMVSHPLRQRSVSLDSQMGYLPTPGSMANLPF
UniProt Q61703: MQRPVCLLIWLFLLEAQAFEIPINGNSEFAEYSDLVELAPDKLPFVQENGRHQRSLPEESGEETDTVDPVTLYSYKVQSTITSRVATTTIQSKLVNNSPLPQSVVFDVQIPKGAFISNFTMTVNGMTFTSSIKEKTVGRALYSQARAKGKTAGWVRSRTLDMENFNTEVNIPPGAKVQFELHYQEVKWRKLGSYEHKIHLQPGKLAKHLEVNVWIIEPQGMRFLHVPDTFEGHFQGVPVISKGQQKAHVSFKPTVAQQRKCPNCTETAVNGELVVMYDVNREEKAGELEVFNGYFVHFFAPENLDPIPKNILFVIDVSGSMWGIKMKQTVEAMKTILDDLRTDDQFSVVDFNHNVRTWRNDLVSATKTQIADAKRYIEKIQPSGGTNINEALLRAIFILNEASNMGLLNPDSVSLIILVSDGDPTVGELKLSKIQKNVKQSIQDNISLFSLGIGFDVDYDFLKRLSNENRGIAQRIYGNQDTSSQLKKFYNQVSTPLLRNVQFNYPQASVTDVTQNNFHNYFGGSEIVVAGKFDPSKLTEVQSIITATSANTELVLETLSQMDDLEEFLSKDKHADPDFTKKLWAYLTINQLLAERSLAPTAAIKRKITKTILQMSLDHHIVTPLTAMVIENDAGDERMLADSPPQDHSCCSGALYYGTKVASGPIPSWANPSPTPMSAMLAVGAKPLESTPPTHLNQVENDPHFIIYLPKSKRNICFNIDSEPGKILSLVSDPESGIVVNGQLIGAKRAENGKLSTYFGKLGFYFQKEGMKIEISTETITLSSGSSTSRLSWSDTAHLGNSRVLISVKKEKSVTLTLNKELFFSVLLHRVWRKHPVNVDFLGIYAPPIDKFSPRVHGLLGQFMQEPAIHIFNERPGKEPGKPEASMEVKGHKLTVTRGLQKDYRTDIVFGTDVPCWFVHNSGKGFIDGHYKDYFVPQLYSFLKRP

Target	log2 fold change
UniProt Q62036 (peptide sequence: SMSVATGSEPR, peptide start residue: 45)	0.393
UniProt Q61458 (peptide sequence: MYHSSSQK, peptide start residue: 1)	-0.586
UniProt Q61502 (peptide sequence: STMAAQNLPEQHVSER, peptide start residue: 255)	-0.259
UniProt Q62432 (peptide sequence: VLTQMGSPSVR, peptide start residue: 452)	0.547
UniProt Q62394 (peptide sequence: SQAALGVLR, peptide start residue: 38)	0.248
UniProt Q62426 (peptide sequence: QIVAGTNLFIK, peptide start residue: 46)	0.0978
UniProt Q62388 (peptide sequence: SNVSATTQSSR, peptide start residue: 80)	0.233
UniProt Q69Z61 (peptide sequence: KLKTDHK, peptide start residue: 337)	-0.00728
UniProt Q64726 (peptide sequence: ISLHWNK, peptide start residue: 230)	0.189
UniProt Q67FY2 (peptide sequence: VRAQNSSGMMGGPQK, peptide start residue: 817)	-1.12
UniProt Q69Z38 (peptide sequence: STEAESILHSEGSR, peptide start residue: 901)	-0.395
UniProt Q61703 (peptide sequence: IYGNQDTSSQLK, peptide start residue: 476)	0.188

From the supplement of paper PMC12819154, “High-throughput peptide-centric local stability assay extends protein–ligand identification to membrane proteins, tissues and bacteria” (Nature Structural & Molecular Biology, 2025)
